Library screen at single concentrations

The chains behind the UniProt entries cited, without tags or fusion partners. Residues count along the entry.
UniProt P9WNZ1, whole entry: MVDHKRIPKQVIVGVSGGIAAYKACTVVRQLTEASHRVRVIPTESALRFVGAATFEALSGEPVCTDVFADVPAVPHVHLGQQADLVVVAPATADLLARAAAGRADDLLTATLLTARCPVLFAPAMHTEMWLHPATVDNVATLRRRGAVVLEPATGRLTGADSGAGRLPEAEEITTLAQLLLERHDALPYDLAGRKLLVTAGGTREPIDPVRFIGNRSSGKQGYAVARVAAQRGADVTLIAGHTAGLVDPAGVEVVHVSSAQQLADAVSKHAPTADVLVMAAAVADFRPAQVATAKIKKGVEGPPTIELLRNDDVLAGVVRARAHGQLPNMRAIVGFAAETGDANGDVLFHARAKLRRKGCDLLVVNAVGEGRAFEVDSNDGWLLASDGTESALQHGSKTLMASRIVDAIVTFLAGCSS
UniProt I6X8D2, whole entry: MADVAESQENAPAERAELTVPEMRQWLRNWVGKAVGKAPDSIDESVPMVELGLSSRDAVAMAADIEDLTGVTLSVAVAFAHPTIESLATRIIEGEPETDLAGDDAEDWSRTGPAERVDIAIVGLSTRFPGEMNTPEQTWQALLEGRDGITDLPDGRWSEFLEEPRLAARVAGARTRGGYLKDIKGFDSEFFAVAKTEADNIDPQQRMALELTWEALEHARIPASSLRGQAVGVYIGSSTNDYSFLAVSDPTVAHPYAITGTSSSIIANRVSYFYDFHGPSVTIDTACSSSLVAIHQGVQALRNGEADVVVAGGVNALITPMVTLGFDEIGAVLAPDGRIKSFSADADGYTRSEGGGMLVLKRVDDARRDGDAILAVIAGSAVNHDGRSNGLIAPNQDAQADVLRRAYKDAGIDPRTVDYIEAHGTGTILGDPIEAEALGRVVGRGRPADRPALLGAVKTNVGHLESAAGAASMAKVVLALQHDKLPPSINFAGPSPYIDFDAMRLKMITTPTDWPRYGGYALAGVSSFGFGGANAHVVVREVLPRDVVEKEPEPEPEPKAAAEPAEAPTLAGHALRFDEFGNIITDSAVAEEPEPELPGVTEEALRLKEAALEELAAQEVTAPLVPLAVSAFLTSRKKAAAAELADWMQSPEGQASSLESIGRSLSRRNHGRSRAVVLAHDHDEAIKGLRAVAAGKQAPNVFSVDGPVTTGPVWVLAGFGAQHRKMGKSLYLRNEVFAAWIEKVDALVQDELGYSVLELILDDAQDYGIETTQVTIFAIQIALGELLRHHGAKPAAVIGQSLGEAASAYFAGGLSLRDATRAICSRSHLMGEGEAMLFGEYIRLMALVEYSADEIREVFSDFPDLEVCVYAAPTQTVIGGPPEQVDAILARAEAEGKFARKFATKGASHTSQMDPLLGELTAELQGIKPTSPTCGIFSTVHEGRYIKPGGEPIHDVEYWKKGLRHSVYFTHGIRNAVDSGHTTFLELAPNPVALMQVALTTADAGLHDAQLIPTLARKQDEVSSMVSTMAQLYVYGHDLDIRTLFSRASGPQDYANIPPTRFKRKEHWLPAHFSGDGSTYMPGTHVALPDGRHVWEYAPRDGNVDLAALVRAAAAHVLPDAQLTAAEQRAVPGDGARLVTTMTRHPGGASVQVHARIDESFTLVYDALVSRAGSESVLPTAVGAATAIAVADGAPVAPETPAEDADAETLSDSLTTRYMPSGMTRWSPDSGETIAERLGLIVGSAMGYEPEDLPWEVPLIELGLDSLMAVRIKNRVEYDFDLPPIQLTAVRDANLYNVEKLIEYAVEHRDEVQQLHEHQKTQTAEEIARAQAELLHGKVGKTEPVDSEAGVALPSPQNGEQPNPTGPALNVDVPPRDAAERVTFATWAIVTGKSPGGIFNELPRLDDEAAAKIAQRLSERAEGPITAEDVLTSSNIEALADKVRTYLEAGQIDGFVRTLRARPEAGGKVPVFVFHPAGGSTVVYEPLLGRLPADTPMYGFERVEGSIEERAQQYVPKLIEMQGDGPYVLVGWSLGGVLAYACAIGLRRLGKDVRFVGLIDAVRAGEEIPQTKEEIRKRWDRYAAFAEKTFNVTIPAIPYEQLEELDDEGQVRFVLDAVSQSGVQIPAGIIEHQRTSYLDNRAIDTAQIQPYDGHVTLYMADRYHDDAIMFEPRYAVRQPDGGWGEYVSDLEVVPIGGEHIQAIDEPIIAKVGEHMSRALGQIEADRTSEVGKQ
UniProt P9WPC5, whole entry: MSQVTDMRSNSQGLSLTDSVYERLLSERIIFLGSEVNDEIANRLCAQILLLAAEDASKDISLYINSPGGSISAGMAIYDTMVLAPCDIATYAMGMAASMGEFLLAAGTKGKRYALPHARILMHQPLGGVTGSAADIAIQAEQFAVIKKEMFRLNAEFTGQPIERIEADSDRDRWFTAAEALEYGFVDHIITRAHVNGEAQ
UniProt P9WPC3, whole entry partner: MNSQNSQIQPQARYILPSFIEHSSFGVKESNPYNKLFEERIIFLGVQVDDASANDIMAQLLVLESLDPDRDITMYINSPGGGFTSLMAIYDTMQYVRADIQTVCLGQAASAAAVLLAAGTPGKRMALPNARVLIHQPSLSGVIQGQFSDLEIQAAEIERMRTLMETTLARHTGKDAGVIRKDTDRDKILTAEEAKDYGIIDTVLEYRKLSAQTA
UniProt A4I591, 1-473: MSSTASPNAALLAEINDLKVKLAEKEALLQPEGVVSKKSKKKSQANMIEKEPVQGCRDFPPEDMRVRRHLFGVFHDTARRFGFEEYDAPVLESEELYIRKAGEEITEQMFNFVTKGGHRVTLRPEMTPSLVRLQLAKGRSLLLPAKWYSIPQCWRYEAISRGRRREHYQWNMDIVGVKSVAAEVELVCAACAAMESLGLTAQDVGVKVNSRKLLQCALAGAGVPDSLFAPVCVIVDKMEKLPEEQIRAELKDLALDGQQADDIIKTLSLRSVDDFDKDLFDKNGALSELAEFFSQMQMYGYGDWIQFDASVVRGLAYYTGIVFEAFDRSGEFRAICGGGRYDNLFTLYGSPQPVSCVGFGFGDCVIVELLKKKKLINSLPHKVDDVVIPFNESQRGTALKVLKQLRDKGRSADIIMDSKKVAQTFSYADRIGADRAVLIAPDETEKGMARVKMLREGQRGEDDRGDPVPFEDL
UniProt P9WFT3, whole entry: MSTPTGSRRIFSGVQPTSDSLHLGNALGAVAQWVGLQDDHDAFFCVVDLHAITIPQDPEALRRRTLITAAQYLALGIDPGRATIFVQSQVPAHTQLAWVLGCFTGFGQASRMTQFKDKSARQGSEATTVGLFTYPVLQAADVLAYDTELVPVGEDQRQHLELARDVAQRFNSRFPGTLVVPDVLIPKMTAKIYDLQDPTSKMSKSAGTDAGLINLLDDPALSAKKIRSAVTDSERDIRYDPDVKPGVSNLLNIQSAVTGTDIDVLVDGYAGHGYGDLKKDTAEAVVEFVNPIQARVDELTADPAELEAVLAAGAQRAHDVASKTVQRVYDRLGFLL

The values are deposited in ChEMBL (CHEMBL3988442, “University of Dundee, Small-Polar-MMV Screening Library” (2021)).

Each number is a percent effect as filed.
The controls that fix the scale are not given in the record; negative values are as filed.
The compounds are a random part of those screened.
A dash means the value is not listed here; it may have been measured.

CoaBC: 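Coenzyme A biosynthesis protein CoaBC, Mycobacterium tuberculosis (UniProt P9WNZ1). Enzyme assay of CoaBC with a phosphate dye (Biomol Green) read at 650 nm. Concentration: 30 µM. Direction is inferred from only a few compounds that gave an IC50; most scored high, so higher reads as stronger inhibition. Most strong results did not repeat in a second test. Size under these conditions: about 67,000 compounds, about 40 of them at 50% or above in at least one test.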
Pks13 thioesterase: 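Polyketide synthase Pks13, Mycobacterium tuberculosis (UniProt I6X8D2). Enzyme assay of the thioesterase domain of polyketide synthase 13; the read-out is not stated. Concentration: 30 µM. Higher reads as stronger inhibition (inferred from which compounds were picked for retests). Of about 67,000 compounds tested this way, about 300 (0.46%) reached 50% or more in at least one test.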
ClpP1P2: 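ClpP1P2, Mycobacterium tuberculosis (UniProt P9WPC5 and UniProt P9WPC3). Protease assay of ClpP1P2, read by the AMC dye that it sets free. Compounds at 50 µM. Higher reads as stronger inhibition, judged from the few compounds that gave an IC50. Most other retested compounds had strongly negative values. Of about 69,000 compounds tested this way, about 10 (0.015%) reached 50% or more in at least one test.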
Toxoplasma: 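Assay of Toxoplasma gondii numbers, read through their beta-galactosidase reporter with a colour substrate. Tested at 10 µM. The record gives no direction; the compounds picked for IC50 retests had high values, so higher reads as fewer parasites. Of about 67,000 compounds tested this way, about 260 (0.38%) reached 50% or more in at least one test.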
LiHisRS: 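Enzyme assay of histidyl-tRNA synthetase; the read-out is not stated. Target: Histidine-tRNA ligase, Leishmania infantum (UniProt A4I591). Tested at 30 µM. Higher reads as stronger inhibition (inferred: compounds with an IC50 in retests scored well above the rest). The assay is labelled LdHisRS but filed under L. infantum. About 69,000 compounds were tested under these conditions; 0.6% (about 410) showed 50% or more at least once.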
MtTrpRS: 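Tryptophan-tRNA ligase, Mycobacterium tuberculosis (UniProt P9WFT3). Enzyme assay of tryptophanyl-tRNA synthetase; the read-out is not stated. Compounds at 10 µM. Higher most likely means stronger inhibition; the record gives no direction and few retests gave an IC50. Size under these conditions: about 65,000 compounds, about 64 of them at 50% or above in at least one test.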

| structure | CoaBC | Pks13 thioesterase | ClpP1P2 | Toxoplasma | LiHisRS | MtTrpRS |
|---|---|---|---|---|---|---|
| `Cc1ccccc1CSc1ncccc1C(=O)N(C)C` | 0 | -15.66 | 15.63 | -4.813 | 7.921 | - |
| `O=c1[nH]nc(C2CC2)n1-c1cccc(Cl)c1` | -3.067 | 14.85 | 9.991 | 6.56 | 17.65 | 5.674 |
| `c1c(CN2CCOCC2)nc2n1CCN(C1CCOCC1)C2` | 3.415 | 1.985 | 11.46 | 5.601 | 9.434 | - |
| `Cc1ccc2c(n1)N(CCN(C)C)CCN(C(=O)c1cscn1)C2` | 1.36 | 2.515 | -4.55 | - | 19 | -5.686 |
| `CCC(=O)N1CCC1c1cc(NC2CCCC2)nc(C)n1` (stereo not given) | 0.9685 | 7.366 | -9.295 | 7.668 | 8.247 | - |
| `Cc1noc(-c2ccnc(N3CCN(C4CCOCC4)CC3)c2)n1` | -0.216 | -8.029 | -18.55 | 4.285 | -13.22 | 1.221 |
| `CCOCCCC(=O)Nc1c(-c2ccc(F)cc2)ncn1C` | -3.241 | 16.2 | 0.191 | 2.183 | 7.937 | -5.061 |
| `CC(C)OC(=O)CCNC(=O)Nc1cccc2ncccc12` | 11.49 | -23.86 | -7.612 | -4.08 | 20.97 | 16.9 |
| `CCCOc1ccccc1C(N)CC(C)C` (stereo not given) | 3.465 | -3.316 | -5.589 | 14.02 | 6 | -1.314 |
| `CS(=O)(=O)NCCCNC(=O)c1cccc(-n2cccc2)c1` | 4.723 | -18.56 | 1.678 | -0.1508 | 20 | -0.3178 |
| `CC(C)n1cc(CN2CCCN(C(=O)C3CCOC3)CC2)cn1` (stereo not given) | -0.4386 | -8.58 | 7.486 | -16.1 | 10.71 | 15.53 |
| `Cc1ccc(NCc2ccc(C#N)cc2)cc1-n1cnnn1` | -1.099 | -4.253 | 9.04 | -7.97 | 2.857 | 0.5435 |
| `COc1ccccc1Oc1ncccc1CNC(=O)C1COC(=O)N1` (stereo not given) | 6.65 | -6.747 | -0.5001 | -7.446 | 20.48 | 1.377 |
| `Cc1nn(C)c(C)c1NC(=O)CNc1cc(C(F)(F)F)ccc1F` | -3.186 | -18.05 | -7.524 | 2.7 | -6.667 | -1.728 |
| `O=C(O)C(F)(F)F.[H][C@@]12CN(Cc3ccc(F)cc3)C[C@]1([H])[C@@H]2CC(=O)N1CCCC1` | - | - | - | 12.26 | - | - |
| `Cn1cc(Cl)cc1C(=O)N1CCN(Cc2ccsc2)CC1` | -1.862 | -10.58 | -16.32 | -13.55 | 29.6 | -4.56 |
| `CC(C)CNC1(Cc2cc(-c3ccccc3)on2)COC1` | 11.26 | -15.33 | 0.4242 | -2.244 | 22.97 | 1.442 |
| `[H][C@@]12CC(=O)N(Cc3csc(C)n3)[C@@]1([H])CCN2Cc1cnn(C)c1` | - | - | - | 6.271 | - | - |
| `Cc1cc(-c2cnn(C)c2)ccc1OCC(N)=O` | 4.733 | 4.546 | -5.049 | 6.167 | 5.376 | -2.716 |
| `CNC(=O)NC(=O)C(C)N1CCN(C2CCCC2)CC1` (stereo not given) | 1.966 | -2.016 | -0.5726 | 12.16 | 13.49 | 0.5228 |
| `CCN1CCc2c(c(COC)nn2C)C1` | 4.071 | -5.537 | -13.77 | -7.72 | 9.709 | -3.961 |
| `O=C(NCc1cn2c(n1)CN(Cc1cccnc1)CC2)C1CCC1.O=C(O)C(F)(F)F.O=C(O)C(F)(F)F` | - | - | - | -1.296 | - | - |
| `CN(C)C(=O)c1nn(C)c2c1CN(Cc1ccoc1)C2` | 0.3699 | -5.825 | -12.67 | 5.621 | 19.35 | 2.252 |
| `COc1ccc(CN2CCC(c3nccnc3-n3ccnc3)CC2)cc1` | 4.833 | -4.398 | 4.46 | -0.8929 | 14 | - |
| `CC(=O)NCCC(=O)NCc1ccc(Br)cc1Cl` | -3.931 | -1.768 | 0.3861 | -10.13 | 15.05 | 1.154 |
| `Clc1ccc(CN(CCN2CCOCC2)Cc2cccnc2)cc1Cl` | 6.294 | 0.5288 | -2.237 | 21.77 | 17.02 | -1.795 |
| `Cc1nc(CN2CCN(C(=O)c3sccc3C)CC2)cs1` | 2.35 | -20.61 | -51.15 | 23.03 | 16.81 | 3.009 |
| `CCOC(=O)C1(Cc2cccc(Cl)c2)CCCN(Cc2ncc[nH]2)C1` (stereo not given) | 5.342 | -4.956 | -39.28 | -7.278 | 14.17 | 6.223 |
| `CC(C)c1nnc(CNC2CCCN(Cc3noc(C4CC4)n3)C2)o1` (stereo not given) | 4.7 | -7.604 | -56.41 | -18.33 | 15.04 | -6.395 |
| `CC(C)c1nccn1C1CCCN(C(=O)c2cnc[nH]2)C1` (stereo not given) | 1.169 | -14.8 | -6.725 | 1.695 | 19.7 | -0.2924 |
| `NCCC(=O)Nc1ccc(-c2ccccc2)cc1` | 3.398 | 25.07 | -5.086 | - | 15.84 | - |
| `Cc1cnn(CC2CCCN2Cc2noc(C3CC3)n2)c1` (stereo not given) | 1.145 | -14.44 | -10.74 | 9.563 | 11.3 | 1.022 |
| `[H][C@]12CC[C@]([H])(C1)[C@H](NC(=O)C1(Oc3ccc(Cl)cc3)CCNCC1)C2` | - | - | - | 30.7 | - | - |
| `CCCn1nnc(NCc2ccccc2OCc2ccc(Cl)cc2)n1` | -8.037 | 20.26 | -13.04 | 2.852 | -8.219 | 2.036 |
| `CC(=O)c1cccc(S(=O)(=O)N2CCC(c3n[nH]c(C)n3)CC2)c1` | - | -33.22 | 1.11 | 1.618 | 15.49 | 1.917 |

The first 2 entries again:

- Cc1ccccc1CSc1ncccc1C(=O)N(C)C | CoaBC: 0%; Pks13 thioesterase: -15.66%; ClpP1P2: 15.63%; Toxoplasma: -4.813%; LiHisRS: 7.921%
- O=c1[nH]nc(C2CC2)n1-c1cccc(Cl)c1 | CoaBC: -3.067%; Pks13 thioesterase: 14.85%; ClpP1P2: 9.991%; Toxoplasma: 6.56%; LiHisRS: 17.65%; MtTrpRS: 5.674%